The results in this text go back to ChEMBL document CHEMBL4028845, “Design, Synthesis, and Properties of a Potent Inhibitor of Pseudomonas aeruginosa Deacetylase LpxC” (J Med Chem, 2017).

The test system of assay [1] is Escherichia coli. Kind of assay: Antibacterial activity against Escherichia coli NB27047 after 18 to 24 hrs. It is filed as functional. An outline of the steps: (§1)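 Broth MIC per CLSI guidelines in cation-adjusted Mueller Hinton broth. Compounds were dissolved and serially diluted in DMSO (carbapenems in water) before addition to plates. Incubation was at 37 °C for 18−24 h. MIC is the lowest concentration preventing visible growth. MIC50/MIC90 are the concentrations inhibiting 50% or 90% of isolates tested.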

For assay [2], the system named is Klebsiella pneumoniae. The assay is described as follows: Antibacterial activity against Klebsiella pneumoniae NB29018 after 18 to 24 hrs. The format is functional. The procedure, abridged:
as §1

SMILES strings stand for the structures.

As to `O=C(O)c1cn(C2CC2)c2cc(N3CCNCC3)c(F)cc2c1=O` [CIPROFLOXACIN], the MIC in assay [1] and in assay [2] was not above 0.03 µg/mL each time.
